Data as given in PubChem BioAssay AID1224827 (NIAID, 2016)

Purpose: 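Confirm genes whose knock-down changes LPS-driven TNF promoter activity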 (follow-up of hits)
Cell system: RAW264.7 G9 mouse macrophage reporter clone
Knock-down reagent: single siRNA against mouse genes, 100 nM siRNA
Time to read-out: siRNA for 2 days, then LPS about 16 h
Treatment: bacterial lipopolysaccharide (LPS), 10 ng/ml, cells fixed after overnight (about 16 h) stimulation
Detection: 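Imaged nuclear TNF reporter intensity, background removed, scaled per plate and to non-targeting control wells, as z-scores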
Reading the numbers: TNF reporter z-score, mean: higher = stronger Tnf promoter reporter signal
Active means: 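An siRNA is called active when its mean z-score over replicates is at least +2 or at most -2; control wells get no call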
The deposit covers about 3,800 reagents; below is a part drawn at random. About 2,200 of all reagents (57%) were called active. 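Active means a strong reporter change in either direction; calls are per siRNA, not per gene; qiagen siRNAs gave weaker effects.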 A number with no mark means an inactive call. The numbers tell different reagents against one gene apart. Not all columns of the deposit are shown.

gene symbol	reagent no.	TNF reporter z-score, mean
Ttf2	1	1.65
Ttf2	2	-4.77 (active)
Ttf2	3	-5.74 (active)
Ttf2	4	1.21
Ttf2	5	1.67
Ttf2	6	-0.346
Abcb10	1	-2.9 (active)
Abcb10	2	-5.06 (active)
Abcb10	3	-5.42 (active)
Abcb10	4	1.78
Abcb10	5	-0.36
Abcb10	6	-2.86 (active)
Rxrb	1	0.151
Rxrb	2	-3.01 (active)
Rxrb	3	-3.37 (active)
Rxrb	4	1.02
Rxrb	5	0.105
Rxrb	6	-0.753
5830411J07Rik	1	1.42
5830411J07Rik	2	0.29
5830411J07Rik	3	-2.63 (active)
Tjp3	1	-0.473
Tjp3	2	-3.84 (active)
Tjp3	3	-4 (active)
Tjp3	4	2.82 (active)
Tjp3	5	-1.09
Tjp3	6	-1.99
Tnfrsf12a	1	-3.56 (active)
Tnfrsf12a	2	-4.37 (active)
Tnfrsf12a	3	-4.66 (active)
Tnfrsf12a	4	-1.37
Tnfrsf12a	5	-2.83 (active)
Tnfrsf12a	6	-2.99 (active)

An excerpt from the list above, as a working copy:
gene symbol	reagent no.	TNF reporter z-score, mean
Tnfrsf12a	1	-3.56 (active)
Tnfrsf12a	2	-4.37 (active)
Tnfrsf12a	3	-4.66 (active)
Tnfrsf12a	4	-1.37
Tnfrsf12a	5	-2.83 (active)

Further reagents follow:
gene symbol	reagent no.	TNF reporter z-score, mean
Tmem116	1	0.722
Tmem116	2	-2.4 (active)
Tmem116	3	-3.6 (active)
Tmem116	4	2.76 (active)
Tmem116	5	-1
Tmem116	6	-0.641
Mgat4b	1	0.717
Mgat4b	2	-2.76 (active)
Mgat4b	3	-4.26 (active)
Mgat4b	4	1.49
Mgat4b	5	-1.44
Mgat4b	6	-1.89
4933431E20Rik	1	0.541
4933431E20Rik	2	-1.34
4933431E20Rik	3	-4.91 (active)
Ren2	1	-0.33
Ren2	2	-2.35 (active)
Ren2	3	-3.15 (active)
Ren2	4	3.5 (active)
Ren2	5	2.92 (active)
Ren2	6	-0.207
Or13a25	1	-1.85
Or13a25	2	-2.94 (active)
Or13a25	3	-4.88 (active)
Or13a25	4	2.75 (active)
Or13a25	5	0.877
Or13a25	6	-2.83 (active)
